From patent US20030100489A1
These are yes or no findings as the source states them, for the method shown. For some of these results: In cells and extracts the contact can be indirect. Some entries that bind do so weakly or less than the wild type.

The chains behind the UniProt entries cited, without tags or fusion partners. Where a name states a change or a piece, a line headed by the entry shows the natural chain unless it says otherwise.
UniProt Q00534: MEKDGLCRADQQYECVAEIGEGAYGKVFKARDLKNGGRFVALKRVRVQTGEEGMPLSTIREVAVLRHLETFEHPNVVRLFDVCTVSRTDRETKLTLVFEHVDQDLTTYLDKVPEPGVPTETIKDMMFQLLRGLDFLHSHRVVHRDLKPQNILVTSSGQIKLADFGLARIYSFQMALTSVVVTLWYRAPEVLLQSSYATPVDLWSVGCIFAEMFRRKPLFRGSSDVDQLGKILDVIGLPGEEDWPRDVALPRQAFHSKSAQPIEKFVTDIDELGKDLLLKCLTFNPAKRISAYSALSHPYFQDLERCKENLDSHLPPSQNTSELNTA
UniProt P11802: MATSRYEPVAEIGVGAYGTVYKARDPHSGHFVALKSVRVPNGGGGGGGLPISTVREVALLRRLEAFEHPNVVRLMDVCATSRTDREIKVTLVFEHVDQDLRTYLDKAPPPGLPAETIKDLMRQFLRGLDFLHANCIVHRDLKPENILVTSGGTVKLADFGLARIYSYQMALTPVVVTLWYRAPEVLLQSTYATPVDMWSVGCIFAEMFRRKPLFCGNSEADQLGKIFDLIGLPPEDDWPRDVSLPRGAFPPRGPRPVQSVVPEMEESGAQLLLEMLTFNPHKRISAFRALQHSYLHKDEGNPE
UniProt P42771: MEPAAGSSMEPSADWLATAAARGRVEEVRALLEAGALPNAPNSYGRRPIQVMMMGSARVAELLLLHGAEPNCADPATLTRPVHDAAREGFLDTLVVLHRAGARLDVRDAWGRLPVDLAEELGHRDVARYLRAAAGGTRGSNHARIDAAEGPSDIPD
UniProt P42772: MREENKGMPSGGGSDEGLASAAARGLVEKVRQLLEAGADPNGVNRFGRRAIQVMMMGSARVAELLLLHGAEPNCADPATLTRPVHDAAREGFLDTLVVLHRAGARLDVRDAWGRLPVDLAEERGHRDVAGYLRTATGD

What was measured:
[1] = molecular target: GAL4db-CDK4 fusion (human); test: yeast two-hybrid screen of HeLa cDNA with GAL4db-CDK4; positive clones encode p16
[2] = molecular target: GAL4db-CDK4 fusion (human); test: yeast two-hybrid (HIS3 growth and beta-galactosidase) in YPB2
CDK6 (human) [3] = molecular target: CDK6 (human) (UniProt Q00534); test: GST pull-down of 35S-labelled in vitro translated CDKs on glutathione sepharose
CDK4 (wild-type) (human) [4] = molecular target: CDK4 (wild-type) (human) (UniProt P11802); test: as above
CDK6 (human) [5] = molecular target: CDK6 (human) (UniProt Q00534); test: anti-CDK6 co-immunoprecipitation from TGF-β arrested HaCaT cells
CDK4 (wild-type) (human) [6] = molecular target: CDK4 (wild-type) (human) (UniProt P11802); test: immunoprecipitation from mixed Sf9 lysates
CDK6 (human) [7] = molecular target: CDK6 (human) (UniProt Q00534); test: anti-CDK6 co-immunoprecipitation from TGF-β arrested human keratinocytes
CDK4 (wild-type) (human) [8] = molecular target: CDK4 (wild-type) (human) (UniProt P11802); test: anti-CDK4 co-immunoprecipitation from TGF-β arrested HaCaT cells
CDK4 (wild-type) (human) [9] = molecular target: CDK4 (wild-type) (human) (UniProt P11802); test: anti-CDK4 co-immunoprecipitation from asynchronous HaCaT cells treated with TGF-β
CDK6 (human) [10] = molecular target: CDK6 (human) (UniProt Q00534); test: anti-CDK6 co-immunoprecipitation from asynchronous HaCaT cells treated with TGF-β
CDK4 (wild-type) (human) [11] = molecular target: CDK4 (wild-type) (human) (UniProt P11802); test: anti-CDK4 co-immunoprecipitation from TGF-β arrested human keratinocytes
CDK4 (wild-type) (human) [12] = molecular target: CDK4 (wild-type) (human) (UniProt P11802); test: anti-CDK4 co-immunoprecipitation from 35S-labelled HaCaT cells treated with TGF-β
CDK6 (human) [13] = molecular target: CDK6 (human) (UniProt Q00534); test: anti-CDK6 co-immunoprecipitation from 35S-labelled HaCaT cells treated with TGF-β

Measured: binding

GAL4ad-p16 fusion (from UniProt P42771 1-156)
binds: [1] | [2]

GST-p15 (from UniProt P42772 1-138)
binds: CDK6 (human) [3] | CDK4 (wild-type) (human) [4]

p15 (from UniProt P42772 1-138)
not listed: [1] | [2] | CDK6 (human) [3] | CDK4 (wild-type) (human) [4]
binds: all other assays above
